Results: the supplement of paper PMC4604168 (melanoma cell lines)
The other results are listed elsewhere or left out. Repeats are few or missing, and single values can be far off.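 Cells were imaged in 1,536-well plates, and nuclei stained with an antibody against cleaved PARP were counted against all DNA-stained nuclei to give the apoptosis fraction. Screening doses were chosen to leave most cells alive, and resting and induced cleaved-PARP levels differ strongly between cell lines.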

What follows are molecules tested on RVH-421 (assay: cleaved PARP positive nuclei fraction relative to DMSO control; melanoma cells; higher = more apoptosis). Conditions: library dose: low library concentration; 72 h.
`C=C(c1ccc(C(=O)O)cc1)c1cc2c(cc1C)C(C)(C)CCC2(C)C` [Bexarotene] + CC(C)(C)c1cnc(CSc2cnc(NC(=O)C3CCNCC3)s2)o1 [SNS-032] (first compound 2 µM, partner dose 0.01 µM) was tested, and the “cleaved PARP positive nuclei fraction” value was 68.3%.
In the case of `Cc1cc(Nc2cc(N3CCN(C)CC3)nc(/C=C/c3ccccc3)n2)n[nH]1` + COc1cc(N2CCC(N3CCN(C)CC3)CC2)ccc1Nc1ncc(Cl)c(Nc2ccccc2S(=O)(=O)C(C)C)n1 [NVP-TAE684] (first compound 0.04 µM, partner dose 0.08 µM), the “cleaved PARP positive nuclei fraction” value is reported as 89.6%.
In the case of `O=C(O)c1ccc2c(c1)nc(Nc1cccc(Cl)c1)c1ccncc12` + Oc1nc(-c2ccc(C(F)(F)F)cc2)nc2c1CSCC2 [XAV939] (first compound 0.4 µM, partner dose 2 µM), the “cleaved PARP positive nuclei fraction” value is reported as 73.1%.
`Nc1ccn([C@@H]2O[C@H](CO)[C@@H](O)C2(F)F)c(=O)n1` [gemcitabine] + COC(=O)c1sccc1S(=O)(=O)Nc1ccc(Nc2ccccc2)cc1OC [GSK0660] (first compound 0.0004 µM, partner dose 1 µM) was tested, and the “cleaved PARP positive nuclei fraction” value was 188%.
For `CNC(=O)c1cc(Oc2ccc(NC(=O)Nc3ccc(Cl)c(C(F)(F)F)c3)cc2)ccn1` [sorafenib] + CC(C)(C)c1cnc(CSc2cnc(NC(=O)C3CCNCC3)s2)o1 [SNS-032] (first compound 0.4 µM, partner dose 0.01 µM), the “cleaved PARP positive nuclei fraction” value was 108%.
In the case of `Nc1ccn([C@@H]2O[C@H](CO)[C@@H](O)C2(F)F)c(=O)n1` [gemcitabine] + OCCn1cc(-c2cnc3nnn(Cc4ccc5ncccc5c4)c3n2)cn1 [PF04217903] (first compound 0.0004 µM, partner dose 1 µM), the “cleaved PARP positive nuclei fraction” value is reported as 60.6%.
In the case of `C=C(c1ccc(C(=O)O)cc1)c1cc2c(cc1C)C(C)(C)CCC2(C)C` [Bexarotene] + Cc1ccc(NC(=O)c2cccc(N(C)C)c2)cc1NC(=O)c1ccc(O)cc1 [ZM336372] (first compound 2 µM, partner dose 2 µM), the “cleaved PARP positive nuclei fraction” value is reported as 131%.
For `Nc1nc(F)nc2c1ncn2[C@@H]1O[C@H](CO)[C@@H](O)[C@@H]1O` [fludarabine] + C=CCn1c(=O)c2cnc(Nc3ccc(N4CCN(C)CC4)cc3)nc2n1-c1cccc(C(C)(C)O)n1 [MK1775] (first compound 0.2 µM, partner dose 0.02 µM), the “cleaved PARP positive nuclei fraction” value was 61.2%.
For `Cc1cc(Nc2cc(N3CCN(C)CC3)nc(/C=C/c3ccccc3)n2)n[nH]1` + Cn1cc(/C=C2\C(=O)Nc3cccnc32)c2ccccc21 [GW441756] (first compound 0.04 µM, partner dose 0.4 µM), the “cleaved PARP positive nuclei fraction” value was 92.5%.
With `CC(C)C[C@H](NC(=O)[C@H](Cc1ccccc1)NC(=O)c1cnccn1)B(O)O` [Bortezomib] + c1cc(-c2cnn3cc(-c4ccc(OCCN5CCCCC5)cc4)cnc23)ccn1 [Dorsomorphin] (first compound 0.001 µM, partner dose 0.4 µM) the “cleaved PARP positive nuclei fraction” value was 309%.
`Nc1ncn([C@H]2C[C@H](O)[C@@H](CO)O2)c(=O)n1` [decitabine] + Cc1cc([N+](=O)[O-])ccc1NS(=O)(=O)c1cc(Cl)ccc1Cl [FH535] (first compound 0.1 µM, partner dose 1 µM) was tested, and the “cleaved PARP positive nuclei fraction” value was 145%.
In the case of `Nc1ncn([C@H]2C[C@H](O)[C@@H](CO)O2)c(=O)n1` [decitabine] + O=C(Nc1cccc(Cl)c1)Nc1ncc(CCNc2ncnc3ccsc23)s1 [SNS314] (first compound 0.1 µM, partner dose 0.0008 µM), the “cleaved PARP positive nuclei fraction” value is reported as 110%.
For `CS(=O)(=O)CCNCc1ccc(-c2ccc3ncnc(Nc4ccc(OCc5cccc(F)c5)c(Cl)c4)c3c2)o1` [lapatinib] + COc1ccc2c(c1)CCC1C2CCC2(C)C(NCCCCCCN3C(=O)C=CC3=O)CCC12 [U73122] (first compound 0.8 µM, partner dose 0.4 µM), the “cleaved PARP positive nuclei fraction” value was 128%.
In the case of `Cc1cc(Nc2cc(N3CCN(C)CC3)nc(/C=C/c3ccccc3)n2)n[nH]1` + CCCCCCCCCCCC1=C(O)C(=O)C=C(O)C1=O [Embelin] (first compound 0.04 µM, partner dose 1.2 µM), the “cleaved PARP positive nuclei fraction” value is reported as 233%.
In the case of `C[C@@H](Oc1cc(-c2cnn(C3CCNCC3)c2)cnc1N)c1c(Cl)ccc(F)c1Cl` [Crizotinib] + Cc1cc([N+](=O)[O-])ccc1NS(=O)(=O)c1cc(Cl)ccc1Cl [FH535] (first compound 0.2 µM, partner dose 1 µM), the “cleaved PARP positive nuclei fraction” value is reported as 142%.
With `Nc1ccn([C@@H]2O[C@H](CO)[C@@H](O)C2(F)F)c(=O)n1` [gemcitabine] + O=C(Nc1cccc(Cl)c1)Nc1ncc(CCNc2ncnc3ccsc23)s1 [SNS314] (first compound 0.0004 µM, partner dose 0.0008 µM) the “cleaved PARP positive nuclei fraction” value was 48.1%.
`O=C(O)[C@@H]1[O][Sb](=[O])([O][Sb]2(=[O])[O][C@H]([C@H](O)CO)[C@H](O)[C@H](C(=O)O)[O]2)[O][C@H]([C@H](O)CO)[C@@H]1O` (stereo partly specified) [stibogluconate] + CC(C)CCN1c2nc(Nc3cc(F)c(O)c(F)c3)ncc2N(C)C(=O)C1C [BID1870] (first compound 2 µM, partner dose 0.2 µM) was tested, and the “cleaved PARP positive nuclei fraction” value was 68.8%.
`C=C(c1ccc(C(=O)O)cc1)c1cc2c(cc1C)C(C)(C)CCC2(C)C` [Bexarotene] + COc1ccc2c(c1)CCC1C2CCC2(C)C(NCCCCCCN3C(=O)C=CC3=O)CCC12 [U73122] (first compound 2 µM, partner dose 0.4 µM) was tested, and the “cleaved PARP positive nuclei fraction” value was 62.8%.
For `C=C(c1ccc(C(=O)O)cc1)c1cc2c(cc1C)C(C)(C)CCC2(C)C` [Bexarotene] + Oc1nc(-c2ccc(C(F)(F)F)cc2)nc2c1CSCC2 [XAV939] (first compound 2 µM, partner dose 2 µM), the “cleaved PARP positive nuclei fraction” value was 151%.
With `CS(=O)(=O)CCNCc1ccc(-c2ccc3ncnc(Nc4ccc(OCc5cccc(F)c5)c(Cl)c4)c3c2)o1` [lapatinib] + NC(=O)Nc1cc(-c2cccc(F)c2)sc1C(=O)N[C@H]1CCCNC1 [AZD7762] (first compound 0.8 µM, partner dose 0.02 µM) the “cleaved PARP positive nuclei fraction” value was 49.6%.
With `O=C(O)[C@@H]1[O][Sb](=[O])([O][Sb]2(=[O])[O][C@H]([C@H](O)CO)[C@H](O)[C@H](C(=O)O)[O]2)[O][C@H]([C@H](O)CO)[C@@H]1O` (stereo partly specified) [stibogluconate] + CN(NC(=O)CC(=O)NN(C)C(=S)c1ccccc1)C(=S)c1ccccc1 [STA4783] (first compound 2 µM, partner dose 0.006 µM) the “cleaved PARP positive nuclei fraction” value was 36.4%.
For `CCCS(=O)(=O)Nc1ccc(F)c(C(=O)c2c[nH]c3ncc(Cl)cc23)c1F` + COc1ccc(COc2ccc(Cc3cnc(N)nc3N)cc2OC)cc1 [GW2580] (first compound 0.08 µM, partner dose 1 µM), the “cleaved PARP positive nuclei fraction” value was 161%.
In the case of `Nc1ncn([C@H]2C[C@H](O)[C@@H](CO)O2)c(=O)n1` [decitabine] + CCc1ccc(CCOc2ccc(CC3SC(=O)NC3=O)cc2)nc1 [pioglitazone] (first compound 0.1 µM, partner dose 2 µM), the “cleaved PARP positive nuclei fraction” value is reported as 95.1%.
In the case of `CN1CCN(c2ccc3nc(-c4c(N)c5c(F)cccc5[nH]c4=O)[nH]c3c2)CC1` [Dovitinib] + CN(NC(=O)CC(=O)NN(C)C(=S)c1ccccc1)C(=S)c1ccccc1 [STA4783] (first compound 0.1 µM, partner dose 0.006 µM), the “cleaved PARP positive nuclei fraction” value is reported as 97.9%.
`Nc1ccn([C@@H]2O[C@H](CO)[C@@H](O)C2(F)F)c(=O)n1` [gemcitabine] + O=c1cc(-c2cccc3c2Sc2ccccc2S3)oc(N2CCOCC2)c1 [KU55933] (first compound 0.0004 µM, partner dose 1 µM) was tested, and the “cleaved PARP positive nuclei fraction” value was 132%.
`CCCS(=O)(=O)Nc1ccc(F)c(C(=O)c2c[nH]c3ncc(Cl)cc23)c1F` + COc1cc(Nc2ncc(F)c(Nc3ccc4c(n3)NC(=O)C(C)(C)O4)n2)cc(OC)c1OC [Tamatinib] (first compound 0.08 µM, partner dose 0.4 µM) was tested, and the “cleaved PARP positive nuclei fraction” value was 96.7%.
With `Cn1c(=O)n(-c2ccc(C(C)(C)C#N)cc2)c2c3cc(-c4cnc5ccccc5c4)ccc3ncc21` + Oc1cc(-c2nc(-c3ccccc3)[nH]c2-c2ccncc2)ccc1Cl [L779450] (first compound 0.004 µM, partner dose 0.2 µM) the “cleaved PARP positive nuclei fraction” value was 129%.
`CN1CCN(c2ccc3nc(-c4c(N)c5c(F)cccc5[nH]c4=O)[nH]c3c2)CC1` [Dovitinib] + COc1ccc(COc2ccc(Cc3cnc(N)nc3N)cc2OC)cc1 [GW2580] (first compound 0.1 µM, partner dose 1 µM) was tested, and the “cleaved PARP positive nuclei fraction” value was 76.1%.
`C=C(c1ccc(C(=O)O)cc1)c1cc2c(cc1C)C(C)(C)CCC2(C)C` [Bexarotene] + CCc1ccc(CCOc2ccc(CC3SC(=O)NC3=O)cc2)nc1 [pioglitazone] (first compound 2 µM, partner dose 2 µM) was tested, and the “cleaved PARP positive nuclei fraction” value was 39.9%.
In the case of `Cc1cc(Nc2cc(N3CCN(C)CC3)nc(/C=C/c3ccccc3)n2)n[nH]1` + CC(C)CCN1c2nc(Nc3cc(F)c(O)c(F)c3)ncc2N(C)C(=O)C1C [BID1870] (first compound 0.04 µM, partner dose 0.2 µM), the “cleaved PARP positive nuclei fraction” value is reported as 277%.
In the case of `CN1CCN(c2ccc3nc(-c4c(N)c5c(F)cccc5[nH]c4=O)[nH]c3c2)CC1` [Dovitinib] + CN(C)S(=O)(=O)c1ccc2c(c1)/C(=C/c1cc3c([nH]1)CCCC3)C(=O)N2 [SU6656] (first compound 0.1 µM, partner dose 0.4 µM), the “cleaved PARP positive nuclei fraction” value is reported as 46.8%.
